Measurements taken from paper PMC8571357.
No constants are given. Whether binding was seen depends on the method and setting. Binding seen in cells or lysates may run through a third protein. Some results given as binding are weak or reduced against the parent protein; the word gives no strength.

Sequences of proteins named here, by UniProt entry; tags and fusion partners are left off.
UniProt O54943: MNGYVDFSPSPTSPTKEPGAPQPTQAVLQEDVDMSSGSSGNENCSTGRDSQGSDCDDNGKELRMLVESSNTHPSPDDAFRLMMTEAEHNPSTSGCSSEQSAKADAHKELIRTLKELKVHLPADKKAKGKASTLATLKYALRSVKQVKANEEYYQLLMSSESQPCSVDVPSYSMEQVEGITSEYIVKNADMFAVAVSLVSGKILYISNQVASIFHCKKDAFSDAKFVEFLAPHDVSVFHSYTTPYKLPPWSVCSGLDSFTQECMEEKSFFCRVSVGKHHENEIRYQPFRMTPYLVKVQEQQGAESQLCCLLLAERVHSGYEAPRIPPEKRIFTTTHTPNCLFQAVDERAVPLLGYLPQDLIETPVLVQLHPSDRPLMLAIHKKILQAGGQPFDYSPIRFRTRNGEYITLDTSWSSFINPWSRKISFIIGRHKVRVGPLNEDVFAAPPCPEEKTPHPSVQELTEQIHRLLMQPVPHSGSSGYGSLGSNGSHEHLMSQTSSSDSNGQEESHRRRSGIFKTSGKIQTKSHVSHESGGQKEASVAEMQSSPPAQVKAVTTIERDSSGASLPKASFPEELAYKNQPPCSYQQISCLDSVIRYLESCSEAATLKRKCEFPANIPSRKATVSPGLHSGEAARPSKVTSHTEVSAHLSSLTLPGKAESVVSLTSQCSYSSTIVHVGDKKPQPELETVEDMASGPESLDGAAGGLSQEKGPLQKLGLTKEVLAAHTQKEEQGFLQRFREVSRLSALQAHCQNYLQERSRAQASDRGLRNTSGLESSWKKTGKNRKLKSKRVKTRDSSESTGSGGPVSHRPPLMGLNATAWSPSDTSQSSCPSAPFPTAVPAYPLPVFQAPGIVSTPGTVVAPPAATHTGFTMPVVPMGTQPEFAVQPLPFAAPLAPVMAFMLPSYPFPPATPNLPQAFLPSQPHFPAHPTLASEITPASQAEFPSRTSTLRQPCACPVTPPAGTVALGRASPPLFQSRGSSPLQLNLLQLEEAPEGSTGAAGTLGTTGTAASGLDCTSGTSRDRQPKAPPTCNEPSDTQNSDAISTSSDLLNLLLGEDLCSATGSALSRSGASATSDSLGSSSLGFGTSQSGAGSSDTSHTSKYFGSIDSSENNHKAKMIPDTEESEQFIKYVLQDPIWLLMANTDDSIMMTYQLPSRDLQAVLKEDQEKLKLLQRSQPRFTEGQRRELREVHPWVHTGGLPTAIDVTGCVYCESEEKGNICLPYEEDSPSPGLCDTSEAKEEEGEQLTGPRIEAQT

What was measured:
[1] = target: T1, cAMP-regulated transcriptional co-activator 1 (CRTC1) (mouse (endogenous in mouse fibroblasts and SCN tissue)) (UniProt Q68ED7); experiment: co-IP; circa 400 ug extract of pooled mouse SCN (wt and Per2 KO), collected in the dark or 15 min after a light pulse at ZT14; antibody 1:50 at 4 °C overnight, protein-A agarose, Western blot
T1 sequence: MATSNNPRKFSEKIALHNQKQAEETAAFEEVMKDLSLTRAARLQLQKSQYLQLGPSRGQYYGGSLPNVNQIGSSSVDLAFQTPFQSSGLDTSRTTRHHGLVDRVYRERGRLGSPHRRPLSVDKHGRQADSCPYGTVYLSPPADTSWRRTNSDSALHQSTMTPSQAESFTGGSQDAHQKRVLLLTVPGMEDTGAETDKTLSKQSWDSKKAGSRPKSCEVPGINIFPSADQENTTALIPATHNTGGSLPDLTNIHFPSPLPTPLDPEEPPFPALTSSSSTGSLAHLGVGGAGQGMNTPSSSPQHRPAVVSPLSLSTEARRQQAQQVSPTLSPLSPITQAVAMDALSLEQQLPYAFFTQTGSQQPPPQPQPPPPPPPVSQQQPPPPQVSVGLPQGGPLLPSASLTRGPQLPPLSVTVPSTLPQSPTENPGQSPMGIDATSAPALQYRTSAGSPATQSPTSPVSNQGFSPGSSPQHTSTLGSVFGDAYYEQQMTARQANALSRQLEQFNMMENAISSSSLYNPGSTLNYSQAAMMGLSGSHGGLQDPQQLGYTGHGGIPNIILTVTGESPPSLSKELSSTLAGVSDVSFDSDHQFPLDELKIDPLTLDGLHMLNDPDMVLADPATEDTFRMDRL

[2] = target: T1, cAMP-regulated transcriptional co-activator 1 (CRTC1) (mouse (endogenous in mouse fibroblasts and SCN tissue)); experiment: co-IP; circa 400 ug Ripa extract of mouse fibroblasts (NIH 3T3; wt and Per2 KO lines), before and after forskolin (25 min); antibody 1:50 at 4 °C overnight, protein-A agarose, washes with NP-40 buffer, Western blot

Substance: PER2 (from UniProt O54943 1-1257)
- binding [1]: binds
- binding [2]: binds
